Assay results taken from patent US20240254085A1, “CHELATORS FOR RADIOMETALS AND METHODS OF MAKING AND USING SAME” (The University of British Columbia, priority 2021, published 2024).
Several values for one entry are separate records, joined by “and”; a condition that tells them apart may be missing. Equal entries are not always repeated.

How the values were obtained:
[1] = Concentration-dependent radiolabelling and molar activity study with [^177Lu]Lu^3+; details: for molar activity: 10 min
[2] = Concentration-dependent radiolabelling with [^225Ac]Ac^3+; details: 10 min; for molar activity: RT; for ligand concentration at which quantitative RCC is achieved: ambient temperature
[3] = Concentration-dependent radiolabelling with [^44Sc]Sc^3+; details: NaOAc (0.1 M, pH 4.5), RT, 10 min
[4] = Concentration-dependent radiolabelling with [^155Tb]Tb^3+; details: 10 min; for molar activity: RT; for ligand concentration at which quantitative RCC is achieved: ambient temperature
[5] = Concentration-dependent radiolabelling with [^111In]In^3+; details: 10 min; for molar activity: RT

| Molecule | molar activity ([1]; [^177Lu]Lu^3+, RT) [GBq/μmol] | molar activity [2] [MBq/μmol] | radiolabelling with [^44Sc]Sc^3+ (RCY/RCC, in words) [3] | molar activity [4] [GBq/μmol] | molar activity [5] [GBq/μmol] | ligand concentration at which quantitative RCC is achieved [2] | ligand concentration at which quantitative RCC is achieved [4] | highest molar activity ([1]; [^177Lu]LuCl3 (20 MBq) in NH4OAc (0.5 M, pH 6.0) at RT, 10 minutes) [GBq/μmol] | ligand concentration at which quantitative RCC/RCY is achieved ([1]; [^177Lu]Lu^3+, RT, 10 minutes) | ligand concentration at which quantitative RCC is achieved ([5]; ambient temperature) |
| --- | --- | --- | --- | --- | --- | --- | --- | --- | --- | --- |
| O=C(O)CN(CCOCCN(CC(=O)O)Cc1cccc(C(=O)O)n1)Cc1cccc(C(=O)O)n1 [H4noneunpa, reference compound] | 2.0 | 134 | poor radiometal ion compatibility | 1.0 | 54 | – | – | – | – | – |
| O=C(O)CN(CCOCCN(Cc1cccc(C(=O)O)n1)Cc1cccc(C(=O)O)n1)CC(=O)O [H4noneunpaX] | 2.0 | 134 | poor radiometal ion compatibility | 1.0 | 54 | – | – | – | – | – |
| H4noneunpaX-Ahx-Tyr^3-TATE | – | – | – | – | – | 10^−5 M | 10^−5 M | – | – | – |
| H4noneunpaX-Bn-NH2 | – | – | quantitative RCC within 10 min. at RT | – | – | 10^−6 M | 10^−6 M | 250 | 10^−3 to 10^−6 M and 10^−6 M | 10^−6 M |
| H4noneunpaX-PEG2-Tyr^3-TATE | – | – | – | – | – | 10^−5 M | 10^−5 M | – | – | – |
